Results reported in patent US12433830B2 (S.I.S. SHULOV INNOVATIVE SCIENCE LTD., priority 2019, dated 2025).
For some assays here: Some peptides are written in HELM: one residue between dots, names in brackets for other building blocks, links after the first $. [ ]: non-standard residue; d: D form. The star is where a group is joined. pGlu = O=C1CC[C@@H](C(=O)O)N1; Octanoyl = CCCCCCCC(=O)*

What was measured:
[1] = general procedure: Fmoc solid-phase peptide synthesis; chlorotrityl chloride resin (CTC); HBTU/HOBT, DIPEA; conditions: purification step, sodium salt
[2] = general procedure: Fmoc solid-phase peptide synthesis; CTC; HBTU/HOBT, DIPEA; conditions: whole synthesis, scale of the general procedure CTC resin 125 gr, sodium salt for ZEP3Na and ZEP4Na

| Substance | final HPLC purity [1] | step yield [1] | final HPLC purity [2] |
| --- | --- | --- | --- |
| PEPTIDE1{[pGlu].N.W.T}$$$$V2.0 | 97.5% | 80% |  |
| [pGlu]NWK(Octanoyl)-OH (SMILES CCCCCCCC(=O)NCCCC[C@H](NC(=O)[C@H](Cc1c[nH]c2ccccc12)NC(=O)[C@H](CC(N)=O)NC(=O)[C@@H]1CCC(=O)N1)C(=O)O) | 99.7% | 71% |  |
| [pGlu]NWT-OH |  |  | 97.3% |
